Data on 1 substance can be found in article PMC11005723, “Development of Complementary Photo‐arginine/lysine to Promote Discovery of Arg/Lys hPTMs Interactomes” (Advanced Science, 2024).

The data set can be described thus: Amino acid labeling preference of photo‐arginine. The settings on record: six amino acids tested (Figure S1).

Entries after “also recorded” stand apart in the source; their conditions may differ.

Take photo‐arginine: the “amino acid labeling preference” value is “preferred to label Asp (negative charge) and Lys; also recorded: also preferred to label Trp and Tyr; also recorded: Ile and Gln exhibited relatively lower labeling efficiency”.
